Experimental data reported in US20180016328A1 (WASHINGTON UNIVERSITY, published 2018).
Results are given in words; binding and its absence hold for the method and conditions named. Binding calls can cover weak binding; strength is not graded here.

Assays:
tau [1] = assay: immunoprecipitation, Western blot for tau (FIG. 11D)
tau [2] = assay: immunoprecipitation of the antibody, Western blot for tau (FIG. 11D)

| binding (tau [1]) | binding (tau [2]) | Binder |
| --- | --- | --- |
| binds | binds | HJ8.5 antibody comprising IgG1 (antibody, V domains shown) VH: EVKVEESGGGLVQPGGSMKLSCVVSGFTFSNYWVNWVRQSPEKGLEWVAQIRLKSDNYATHYEESVKGRFTISRDDSKSSVYLQMNNLRAEDSGIYYCTNWEDYWGQGTTLTVSS VL: DIVLTQSPASLAVSLGQRATISCRASQSVSTSRYSYIHWYQQKPGQPPKLLIKYASNLESGVPARFSGSGSGTDFTLNIHPLEEEDAATYYCHHSWEIPLTFGAGTKLELK |
| binds | binds | HJ8.5 antibody comprising IgG2b (antibody, V domains shown) VH: EVKVEESGGGLVQPGGSMKLSCVVSGFTFSNYWVNWVRQSPEKGLEWVAQIRLKSDNYATHYEESVKGRFTISRDDSKSSVYLQMNNLRAEDSGIYYCTNWEDYWGQGTTLTVSS VL: DIVLTQSPASLAVSLGQRATISCRASQSVSTSRYSYIHWYQQKPGQPPKLLIKYASNLESGVPARFSGSGSGTDFTLNIHPLEEEDAATYYCHHSWEIPLTFGAGTKLELK |
| binds | binds | HJ8.5 antibody comprising IgG2ab (antibody, V domains shown) VH: EVKVEESGGGLVQPGGSMKLSCVVSGFTFSNYWVNWVRQSPEKGLEWVAQIRLKSDNYATHYEESVKGRFTISRDDSKSSVYLQMNNLRAEDSGIYYCTNWEDYWGQGTTLTVSS VL: DIVLTQSPASLAVSLGQRATISCRASQSVSTSRYSYIHWYQQKPGQPPKLLIKYASNLESGVPARFSGSGSGTDFTLNIHPLEEEDAATYYCHHSWEIPLTFGAGTKLELK |
